Experimental data taken from patent publication US4710505A, “Asymmetric heterocyclic ester derivatives of 1,4-dihydropyridine-3,5-dicarboxylic acids” (Societe de Recherches Industrielles (S.O.R.I.), priority 1985, dated 1987).

Assay: in vivo
Conditions: rat, intravenous, male Wistar rats weighing 300 g
Experimental: The LD50 was determined by intravenous administration to male Wistar rats weighing 300 g.

Q: Which LD50 does the source give for COC(=O)C1=C(C)NC(C)=C(C(=O)OC)C1c1ccccc1[N+](=O)[O-] [nifedipine, dimethyl 1,4-dihydro-2,6-dimethyl-4-(2-nitrophenyl)pyridine-3,5-dicarboxylate, reference compound] here?
A: The LD50 was 13.2 mg/kg.
